Reference: PubChem BioAssay AID1224828 (NIAID, 2016)

- Test: 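Knock-downs that increase or decrease LPS-induced p65 nuclear translocation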 (primary screen)
- System: mouse RAW264.7 G9 macrophage reporter cells (GFP-p65, Tnf promoter-mCherry)
- Reagent: siRNA pool against mouse genes, 100 nM
- Duration: 2 days siRNA transfection, then 40 min LPS before fixation
- Challenge: LPS (Salmonella minnesota R595) at 10 ng/ml
- Read-out: 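Microscopy ratio of nuclear to perinuclear-ring GFP-p65 signal, scaled to the plate median; gene score is the average of two replicate robust z-scores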
- Scale: p65 translocation robust z-score: higher = more nuclear NF-kappaB p65 after LPS than the plate median; nuclear/cytoplasmic p65 ratio: higher = more nuclear NF-kappaB p65
- Active means: 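Active if robust z is above 3.3 (negative regulators) or below -1.56, the Tlr4 control median (positive regulators); activity score 50 or more; control wells not called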
- Meaning of the calls: active = hit (p65 shift raised or lowered); inactive = no clear change
In all, the deposit lists about 17,000 reagents; below is a random part of them. Of all reagents, 762 (4.5%) are marked active. 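Active calls include both raised and lowered p65 entry, mostly lowered; wells with fewer than 50 cells lack a z-score.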 Raw values vary from plate to plate and are shown uncorrected.

Nmb (GeneID 68039) [SID315473380] → p65 translocation robust z-score = -0.65; nuclear/cytoplasmic p65 ratio, rep 1 = 1.37; nuclear/cytoplasmic p65 ratio, rep 2 = 1.33; low cell count flag = enough cells to score; Outcome = inactive
Acp2 (GeneID 11432) [SID315465252] → p65 translocation robust z-score = 0; nuclear/cytoplasmic p65 ratio, rep 1 = 1.64; nuclear/cytoplasmic p65 ratio, rep 2 = 1.6; low cell count flag = enough cells to score; Outcome = inactive
Tox3 (GeneID 244579) [SID315479768] → p65 translocation robust z-score = 0.26; nuclear/cytoplasmic p65 ratio, rep 1 = 1.41; nuclear/cytoplasmic p65 ratio, rep 2 = 1.56; low cell count flag = enough cells to score; Outcome = inactive
Adgrb2 (GeneID 230775) [SID315478823] → p65 translocation robust z-score = 1.08; nuclear/cytoplasmic p65 ratio, rep 1 = 1.71; nuclear/cytoplasmic p65 ratio, rep 2 = 1.69; low cell count flag = enough cells to score; Outcome = inactive
Lxn (GeneID 17035) [SID315467773] → p65 translocation robust z-score = 0.22; nuclear/cytoplasmic p65 ratio, rep 1 = 1.67; nuclear/cytoplasmic p65 ratio, rep 2 = 1.65; low cell count flag = enough cells to score; Outcome = inactive
Dvl2 (GeneID 13543) [SID315466409] → p65 translocation robust z-score = 1.28; nuclear/cytoplasmic p65 ratio, rep 1 = 1.71; nuclear/cytoplasmic p65 ratio, rep 2 = 1.49; low cell count flag = enough cells to score; Outcome = inactive
Nedd4l (GeneID 83814) [SID315475871] → p65 translocation robust z-score = 1.39; nuclear/cytoplasmic p65 ratio, rep 1 = 1.63; nuclear/cytoplasmic p65 ratio, rep 2 = 1.51; low cell count flag = enough cells to score; Outcome = inactive
Commd10 (GeneID 69456) [SID315473806] → p65 translocation robust z-score = 0.71; nuclear/cytoplasmic p65 ratio, rep 1 = 1.68; nuclear/cytoplasmic p65 ratio, rep 2 = 1.97; low cell count flag = enough cells to score; Outcome = inactive
Bola3 (GeneID 78653) [SID315475595] → nuclear/cytoplasmic p65 ratio, rep 1 = 1.13; nuclear/cytoplasmic p65 ratio, rep 2 = 1.27; low cell count flag = fewer than 50 cells per well; well left out of scoring; Outcome = inactive
Txndc8 (GeneID 67402) [SID315473003] → nuclear/cytoplasmic p65 ratio, rep 1 = 1.36; nuclear/cytoplasmic p65 ratio, rep 2 = 2.1; low cell count flag = fewer than 50 cells per well; well left out of scoring; Outcome = inactive
Coa8 (GeneID 68020) [SID315473367] → p65 translocation robust z-score = -0.01; nuclear/cytoplasmic p65 ratio, rep 1 = 1.41; nuclear/cytoplasmic p65 ratio, rep 2 = 1.45; low cell count flag = enough cells to score; Outcome = inactive

Reformatted: entries from further up
{"Gene": "Commd10 (GeneID 69456)", "PubChem SID": "SID315473806", "p65 translocation robust z-score": 0.71, "nuclear/cytoplasmic p65 ratio, rep 1": 1.68, "nuclear/cytoplasmic p65 ratio, rep 2": 1.97, "low cell count flag": "enough cells to score", "Outcome": "inactive"}
{"Gene": "Bola3 (GeneID 78653)", "PubChem SID": "SID315475595", "nuclear/cytoplasmic p65 ratio, rep 1": 1.13, "nuclear/cytoplasmic p65 ratio, rep 2": 1.27, "low cell count flag": "fewer than 50 cells per well; well left out of scoring", "Outcome": "inactive"}
{"Gene": "Txndc8 (GeneID 67402)", "PubChem SID": "SID315473003", "nuclear/cytoplasmic p65 ratio, rep 1": 1.36, "nuclear/cytoplasmic p65 ratio, rep 2": 2.1, "low cell count flag": "fewer than 50 cells per well; well left out of scoring", "Outcome": "inactive"}

Next entries follow:
Tas2r117 (GeneID 353166) [SID315481700] → p65 translocation robust z-score = 0.95; nuclear/cytoplasmic p65 ratio, rep 1 = 1.56; nuclear/cytoplasmic p65 ratio, rep 2 = 1.23; low cell count flag = enough cells to score; Outcome = inactive
Defb11 (GeneID 246081) [SID315479854] → p65 translocation robust z-score = 1.65; nuclear/cytoplasmic p65 ratio, rep 1 = 1.75; nuclear/cytoplasmic p65 ratio, rep 2 = 1.84; low cell count flag = enough cells to score; Outcome = inactive
Isca1 (GeneID 69046) [SID315473704] → p65 translocation robust z-score = -0.63; nuclear/cytoplasmic p65 ratio, rep 1 = 1.51; nuclear/cytoplasmic p65 ratio, rep 2 = 1.49; low cell count flag = enough cells to score; Outcome = inactive
Hexim1 (GeneID 192231) [SID315477409] → p65 translocation robust z-score = 0.1; nuclear/cytoplasmic p65 ratio, rep 1 = 1.64; nuclear/cytoplasmic p65 ratio, rep 2 = 1.76; low cell count flag = enough cells to score; Outcome = inactive
Qki (GeneID 19317) [SID315468841] → p65 translocation robust z-score = 0.53; nuclear/cytoplasmic p65 ratio, rep 1 = 1.43; nuclear/cytoplasmic p65 ratio, rep 2 = 1.29; low cell count flag = enough cells to score; Outcome = inactive
Cyp2b9 (GeneID 13094) [SID315466228] → p65 translocation robust z-score = -1.24; nuclear/cytoplasmic p65 ratio, rep 1 = 1.41; nuclear/cytoplasmic p65 ratio, rep 2 = 1.56; low cell count flag = enough cells to score; Outcome = inactive
Hal (GeneID 15109) [SID315467139] → p65 translocation robust z-score = 0.15; nuclear/cytoplasmic p65 ratio, rep 1 = 1.34; nuclear/cytoplasmic p65 ratio, rep 2 = 1.5; low cell count flag = enough cells to score; Outcome = inactive
Mcpt2 (GeneID 17225) [SID315467869] → p65 translocation robust z-score = -0.07; nuclear/cytoplasmic p65 ratio, rep 1 = 1.77; nuclear/cytoplasmic p65 ratio, rep 2 = 1.48; low cell count flag = enough cells to score; Outcome = inactive
Fam168b (GeneID 214469) [SID315477863] → p65 translocation robust z-score = 0.03; nuclear/cytoplasmic p65 ratio, rep 1 = 1.52; nuclear/cytoplasmic p65 ratio, rep 2 = 1.44; low cell count flag = enough cells to score; Outcome = inactive
Rhou (GeneID 69581) [SID315473838] → p65 translocation robust z-score = 4.66; nuclear/cytoplasmic p65 ratio, rep 1 = 1.8; nuclear/cytoplasmic p65 ratio, rep 2 = 2.53; low cell count flag = enough cells to score; Outcome = active
Rnf13 (GeneID 24017) [SID315470289] → p65 translocation robust z-score = 0.47; nuclear/cytoplasmic p65 ratio, rep 1 = 1.53; nuclear/cytoplasmic p65 ratio, rep 2 = 1.27; low cell count flag = enough cells to score; Outcome = inactive
H2-M3 (GeneID 14991) [SID315467113] → p65 translocation robust z-score = 1.18; nuclear/cytoplasmic p65 ratio, rep 1 = 1.83; nuclear/cytoplasmic p65 ratio, rep 2 = 1.71; low cell count flag = enough cells to score; Outcome = inactive
A430072C10Rik (GeneID 319637) [SID315481138] → nuclear/cytoplasmic p65 ratio, rep 1 = 1.54; nuclear/cytoplasmic p65 ratio, rep 2 = 1.74; low cell count flag = fewer than 50 cells per well; well left out of scoring; Outcome = inactive
Duxbl1 (GeneID 278672) [SID315481010] → nuclear/cytoplasmic p65 ratio, rep 1 = 1.66; nuclear/cytoplasmic p65 ratio, rep 2 = 1.48; low cell count flag = fewer than 50 cells per well; well left out of scoring; Outcome = inactive
Med18 (GeneID 67219) [SID315472906] → p65 translocation robust z-score = 0.46; nuclear/cytoplasmic p65 ratio, rep 1 = 1.49; nuclear/cytoplasmic p65 ratio, rep 2 = 1.5; low cell count flag = enough cells to score; Outcome = inactive
Pcolce2 (GeneID 76477) [SID315475320] → p65 translocation robust z-score = -1.92; nuclear/cytoplasmic p65 ratio, rep 1 = 1.13; nuclear/cytoplasmic p65 ratio, rep 2 = 1.07; low cell count flag = enough cells to score; Outcome = active
